Values from PubChem BioAssay AID1671195 (Yale University, 2021)
This is one part, drawn at random, of about 22,000 deposited reagents. About 1,510 of them (6.9%) were called active. 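Active includes knockdowns raising or lowering LDL uptake; positive z-scores mean more uptake, negative mean less.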 Unmarked entries are inactive.

Test: 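Knockdowns that increase or decrease uptake of fluorescent LDL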 (primary screen)
Cells: human Huh7 hepatoma cells
Knock-down reagent: siRNA pool against human genes, 18 nM
Duration: about 2 to 2.5 days of knockdown, then 8 h LDL uptake
Challenge: DiI-labelled LDL at 30 µg/ml for 8 h, in lipoprotein-deficient serum medium
Detection: 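Per-cell DiI-LDL intensity by automated imaging; well means scaled to the plate median and given as a robust z-score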
Direction: robust z-score: higher = more LDL uptake after knockdown
Hit rule: 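Active when two or more replicates show a robust z-score above 2 or below -2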

gene symbol | PubChem SID | robust z-score, replicate 1 | robust z-score, replicate 2 | robust z-score, replicate 3
AKR1B1 (aldo-keto reductase family 1 member B) | SID442895874 | -0.236 | 0.148 | -0.559
TENM3 (teneurin transmembrane protein 3) | SID442889190 | 0.306 | 1.69 | -0.203
CREB3L1 (cAMP responsive element binding protein 3 like 1) | SID442897382 | -0.48 | -0.732 | 0.0734
CHEK2 (checkpoint kinase 2) | SID442896429 | -0.862 | 0.225 | -0.181
PDGFA-DT (PDGFA divergent transcript) | SID442899442 | -0.463 | -0.84 | -0.56
PCCB (propionyl-CoA carboxylase subunit beta) | SID442890677 | 1.47 | -0.419 | 0.102
NOCT (nocturnin) | SID442902555 | -0.849 | -1.35 | -1.11
ANGPTL1 (angiopoietin like 1) | SID442884548 | -2.65 (active) | -2.57 | -2
CRNN (cornulin) | SID442892433 | 0.181 | -0.0173 | 0.338
HSD17B12 (hydroxysteroid 17-beta dehydrogenase 12) | SID442886482 | 1.54 | 0.779 | 1.12
LOC387888 (retired record) | SID442895234 | -0.512 | 0.216 | -0.148
IGFBP4 (insulin like growth factor binding protein 4) | SID442887003 | 1.43 | 0.562 | 1.03
ARK2N (arkadia (RNF111) N-terminal like PKA signaling regulator 2N) | SID442890239 | 0.126 | 0.689 | 0.517
EVX2 (even-skipped homeobox 2) | SID442890360 | 0.911 | 0.18 | 0.193
TACC3 (transforming acidic coiled-coil containing protein 3) | SID442891505 | 0.31 | 1.05 | -0.529
C14orf39 (chromosome 14 open reading frame 39) | SID442885826 | 1.13 | 1.57 | 1.37
TNK1 (tyrosine kinase non receptor 1) | SID442898304 | -0.659 | -0.602 | -0.19
TMEM223 (transmembrane protein 223) | SID442888881 | 0.704 | 0.142 | 1.09
PDCL3P4 (PDCL3 pseudogene 4) | SID442904139 | -1.5 | -1.54 | -1.48
SNPH (syntaphilin) | SID442900266 | -1.38 | 0.104 | -0.933
NAXE (NAD(P)HX epimerase) | SID442883387 | 4.11 (active) | 1.67 | 3.37
RPTN (repetin) | SID442885750 | 0.685 | 1.7 | 1.77
LOC388586 (retired record) | SID442901722 | -1.15 | -0.865 | -0.82
RFC1 (replication factor C subunit 1) | SID442894950 | -0.586 | 0.652 | -0.416
CCL17 (C-C motif chemokine ligand 17) | SID442895542 | -0.483 | 0.0898 | -0.145
PRDX3 (peroxiredoxin 3) | SID442888543 | 0.452 | 0.49 | 1.16
NAV2-AS5 (NAV2 antisense RNA 5) | SID442889819 | 0.602 | 0.426 | 0.487
LOC255519 (retired record) | SID442888515 | 0.699 | 0.774 | 0.645
